From publication PMC3514159 come the findings set out here.

By UniProt entry, the sequences of proteins in these tests, tags left out.
UniProt P09022: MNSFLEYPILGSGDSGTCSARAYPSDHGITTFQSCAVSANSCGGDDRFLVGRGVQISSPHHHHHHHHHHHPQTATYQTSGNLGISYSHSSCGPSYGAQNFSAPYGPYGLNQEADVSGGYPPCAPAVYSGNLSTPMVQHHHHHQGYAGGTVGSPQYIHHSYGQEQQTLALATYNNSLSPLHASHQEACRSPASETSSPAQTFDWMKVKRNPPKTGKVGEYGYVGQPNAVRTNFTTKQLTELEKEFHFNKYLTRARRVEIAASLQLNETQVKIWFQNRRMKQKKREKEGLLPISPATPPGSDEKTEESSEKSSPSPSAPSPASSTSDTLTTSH

No constants are given. Whether binding was seen depends on the method and setting. For some of these results: In cells and extracts the contact can be indirect. Some entries that bind do so weakly or less than the wild type.

The chains are these.
B1: keratin 81 (protein, UniProt Q14533 1-505)
chain: MTCGSGFGGRAFSCISACGPRPGRCCITAAPYRGISCYRGLTGGFGSHSVCGGFRAGSCGRSFGYRSGGVCGPSPPCITTVSVNESLLTPLNLEIDPNAQCVKQEEKEQIKSLNSRFAAFIDKVRFLEQQNKLLETKLQFYQNRECCQSNLEPLFEGYIETLRREAECVEADSGRLASELNHVQEVLEGYKKKYEEEVSLRATAENEFVALKKDVDCAYLRKSDLEANVEALIQEIDFLRRLYEEEILILQSHISDTSVVVKLDNSRDLNMDCIIAEIKAQYDDIVTRSRAEAESWYRSKCEEMKATVIRHGETLRRTKEEINELNRMIQRLTAEVENAKCQNSKLEAAVAQSEQQGEAALSDARCKLAELEGALQKAKQDMACLIREYQEVMNSKLGLDIEIATYRRLLEGEEQRLCEGIGAVNVCVSSSRGGVVCGDLCVSGSRPVTGSVCSAPCNGNVAVSTGLCAPCGQLNTTCGGGSCGVGSCGISSLGVGSCGSSCRKC
B2: chromosome 1 open reading frame 94 (protein, UniProt Q6P1W5 1-598)
chain: MRGGGGCVLALGGQRGFQKERRRMASGNGLPSSSALVAKGPCALGPFPRYIWIHQDTPQDSLDKTCHEIWKRVQGLPEASQPWTSMEQLSVPVVGTLRGNELSFQEEALELSSGKDEISLLVEQEFLSLTKEHSILVEESSGELEVPGSSPEGTRELAPCILAPPLVAGSNERPRASIIVGDKLLKQKVAMPVISSRQDCDSATSTVTDILCAAEVKSSKGTEDRGRILGDSNLQVSKLLSQFPLKSTETSKVPDNKNVLDKTRVTKDFLQDNLFSGPGPKEPTGLSPFLLLPPRPPPARPDKLPELPAQKRQLPVFAKICSKPKADPAVERHHLMEWSPGTKEPKKGQGSLFLSQWPQSQKDACGEEGCCDAVGTASLTLPPKKPTCPAEKNLLYEFLGATKNPSGQPRLRNKVEVDGPELKFNAPVTVADKNNPKYTGNVFTPHFPTAMTSATLNQPLWLNLNYPPPPVFTNHSTFLQYQGLYPQQAARMPYQQALHPQLGCYSQQVMPYNPQQMGQQIFRSSYTPLLSYIPFVQPNYPYPQRTPPKMSANPRDPPLMAGDGPQYLFPQGYGFGSTSGGPLMHSPYFSSSGNGINF
B3: RAB33A (member RAS oncogene family) (protein, UniProt Q14088 1-237)
chain: MAQPILGHGSLQPASAAGLASLELDSSLDQYVQIRIFKIIVIGDSNVGKTCLTFRFCGGTFPDKTEATIGVDFREKTVEIEGEKIKVQVWDTAGQERFRKSMVEHYYRNVHAVVFVYDVTKMTSFTNLKMWIQECNGHAVPPLVPKVLVGNKCDLREQIQVPSNLALKFADAHNMLLFETSAKDPKESQNVESIFMCLACRLKAQKSLLYRDAERQQGKVQKLEFPQEANSKTSCPC
B4: keratin associated protein 5-9 (protein, UniProt P26371 1-169)
chain: MGCCGCSGGCGSSCGGCDSSCGSCGSGCRGCGPSCCAPVYCCKPVCCCVPACSCSSCGKRGCGSCGGSKGGCGSCGCSQCSCCKPCCCSSGCGSSCCQCSCCKPYCSQCSCCKPCCSSSGRGSSCCQSSCCKPCCSSSGCGSSCCQSSCCKPCCSQSRCCVPVCYQCKI
B5: MyoD family inhibitor (protein, UniProt Q99750 1-246)
chain: MYQVSGQRPSGCDAPYGAPSAAPGPAQTLSLLPGLEVVTGSTHPAEAAPEEGSLEEAATPMPQGNGPGIPQGLDSTDLDVPTEAVTCQPQGNPLGCTPLLPNDSGHPSELGGTRRAGNGALGGPKAHRKLQTHPSLASQGSKKSKSSSKSTTSQIPLQAQEDCCVHCILSCLFCEFLTLCNIVLDCATCGSCSSEDSCLCCCCCGSGECADCDLPCDLDCGILDACCESADCLEICMECCGLCFSS
B6: family with sequence similarity 154, member A (protein, UniProt Q8IYX7 1-474)
chain: MKTKCICELCSCGRHHCPHLPTKIYDKTEKPCLLSEYTENYPFYHSYLPRESFKPRREYQKGPIPMEGLTTSRRDFGPHKVAPVKVHQYDQFVPSEENMDLLTTYKKDYNPYPVCRVDPIKPRDSKYPCSDKMECLPTYKADYLPWNQPRREPLRLEHKYQPASVRFDNRTTHQDDYPIKGLVKTISCKPLAMPKLCNIPLEDVTNYKMSYVAHPVEKRFVHEAEKFRPCEIPFESLTTQKQSYRGLMGEPAKSLKPLARPPGLDMPFCNTTEFRDKYQAWPMPRMFSKAPITYVPPEDRMDLLTTVQAHYTCPKGAPAQSCRPALQIKKCGRFEGSSTTKDDYKQWSSMRTEPVKPVPQLDLPTEPLDCLTTTRAHYVPHLPINTKSCKPHWSGPRGNVPVESQTTYTISFTPKEMGRCLASYPEPPGYTFEEVDALGHRIYKPVSQAGSQQSSHLSVDDSENPNQRELEVLA
B7: zinc finger, ZZ-type containing 3 (protein, UniProt Q8IYH5 1-903)
chain: MAASRSTRVTRSTVGLNGLDESFCGRTLRNRSIAHPEEISSNSQVRSRSPKKRPEPVPIQKGNNNGRTTDLKQQSTRESWVSPRKRGLSSSEKDNIERQAIENCERRQTEPVSPVLKRIKRCLRSEAPNSSEEDSPIKSDKESVEQRSTVVDNDADFQGTKRACRCLILDDCEKREIKKVNVSEEGPLNSAVVEEITGYLAVNGVDDSDSAVINCDDCQPDGNTKQNSIGSYVLQEKSVAENGDTDTQTSMFLDSRKEDSYIDHKVPCTDSQVQVKLEDHKIVTACLPVEHVNQLTTEPATGPFSETQSSLRDSEEEVDVVGDSSASKEQCKENTNNELDTSLESMPASGEPEPSPVLDCVSAQMMSLSEPQEHRYTLRTSPRRAAPTRGSPTKNSSPYRENGQFEENNLSPNETNATVSDNVSQSPTNPGEISQNEKGICCDSQNNGSEGVSKPPSEARLNIGHLPSAKESASQHITEEEDDDPDVYYFESDHVALKHNKDYQRLLQTIAVLEAQRSQAVQDLESLGRHQREALKNPIGFVEKLQKKADIGLPYPQRVVQLPEIVWDQYTHSLGNFEREFKNRKRHTRRVKLVFDKVGLPARPKSPLDPKKDGESLSYSMLPLSDGPEGSSSRPQMIRGRLCDDTKPETFNQLWTVEEQKKLEQLLIKYPPEEVESRRWQKIADELGNRTAKQVASRVQKYFIKLTKAGIPVPGRTPNLYIYSKKSSTSRRQHPLNKHLFKPSTFMTSHEPPVYMDEDDDRSCFHSHMNTAVEDASDDESIPIMYRNLPEYKELLQFKKLKKQKLQQMQAESGFVQHVGFKCDNCGIEPIQGVRWHCQDCPPEMSLDFCDSCSDCLHETDIHKEDHQLEPIYRSETFLDRDYCVSQGTSYNYLDPNYFPANR
B8: family with sequence similarity 108, member A1 (protein, UniProt Q96GS6 1-310)
chain: MNGLSLSELCCLFCCPPCPGRIAAKLAFLPPEATYSLVPEPEPGPGGAGAAPLGTLRASSGAPGRWKLHLTERADFQYSQRELDTIEVFPTKSARGNRVSCMYVRCVPGARYTVLFSHGNAVDLGQMSSFYIGLGSRLHCNIFSYDYSGYGASSGRPSERNLYADIDAAWQALRTRYGISPDSIILYGQSIGTVPTVDLASRYECAAVVLHSPLTSGMRVAFPDTKKTYCFDAFPNIEKVSKITSPVLIIHGTEDEVIDFSHGLALYERCPKAVEPLWVEGAGHNDIELYSQYLERLRRFISQELPSQRA
B9: keratin associated protein 26-1 (protein, UniProt Q6PEX3 1-210)
chain: MSCPNYCSGNSNSGSLRTSRHIPLTSIDLCPTSVSCGDVLYLPTSSQDHTWVTDNCQETCGEPTSCQPVHCETGNLETSCGSSTAYYVPRPCQGSSFLPASFFSSSCLPVSCRPQRYVSSGCRPLRPLLNSYQPIGDCVPNAYRPQFCLSKSCQPQNLLTSGCQPSSCLAYRPQSLHVVSSSLRPLGPLFSGCQPLTHVFSTCRPSCSGL
B10: sprouty homolog 2 (protein, UniProt O43597 1-315)
chain: MEARAQSGNGSQPLLQTPRDGGRQRGEPDPRDALTQQVHVLSLDQIRAIRNTNEYTEGPTVVPRPGLKPAPRPSTQHKHERLHGLPEHRQPPRLQHSQVHSSARAPLSRSISTVSSGSRSSTRTSTSSSSSEQRLLGSSFSSGPVADGIIRVQPKSELKPGELKPLSKEDLGLHAYRCEDCGKCKCKECTYPRPLPSDWICDKQCLCSAQNVIDYGTCVCCVKGLFYHCSNDDEDNCADNPCSCSQSHCCTRWSAMGVMSLFLPCLWCYLPAKGCLKLCQGCYDRVNRPGCRCKNSNTVCCKVPTVPPRNFEKPT
B11: G protein regulated inducer of neurite outgrowth 2 (protein, UniProt O60269 1-458)
chain: MSSSRPEPGPWAPLSPRLQPLSQSSSSLLGEGREQRPELRKTASSTVWQAQLGEASTRPQAPEEEGNPPESMKPARASGPKARPSAGGHWWSSTVGNVSTMGGSDLCRLRAPSAAAMQRSHSDLVRSTQMRGHSGARKASLSCSALGSSPVHRAQLQPGGTSGQGGQAPAGLERDLAPEDETSNSAWMLGASQLSVPPLDLGDTTAHSSSAQAEPKAAEQLATTTCHALPPAALLCGMREVRAGGCCHALPATGILAFPKLVASVSESGLQAQHGVKIHCRLSGGLPGHSHCCAHLWGPAGLVPEPGSRTKDVWTMTSANDLAPAEASPLSAQDAGVQAAPVAACKAVATSPSLEAPAALHVFPEVTLGSSLEEVPSPVRDVRWDAEGMTWEVYGAAVDLEVLGVAIQKHLEMQFEQLQRAPASEDSLSVEGRRGPLRAVMQSLRRPSCCGCSGAAPE
B12: regulator of G-protein signaling 17 (protein, UniProt Q9UGC6 1-210)
chain: MRKRQQSQNEGTPAVSQAPGNQRPNNTCCFCWCCCCSCSCLTVRNEERGENAGRPTHTTKMESIQVLEECQNPTAEEVLSWSQNFDKMMKAPAGRNLFREFLRTEYSEENLLFWLACEDLKKEQNKKVIEEKARMIYEDYISILSPKEVSLDSRVREVINRNLLDPNPHMYEDAQLQIYTLMHRDSFPRFLNSQIYKSFVESTAGSSSES
B13: heat shock transcription factor, Y-linked 1 (protein, UniProt Q96LI6 1-401)
chain: MAHVSSETQDVSPKDELTASEASTRSPLCEHTFPGDSDLRSMIEEHAFQVLSQGSLLESPSYTVCVSEPDKDDDFLSLNFPRKLWKIVESDQFKSISWDENGTCIVINEELFKKEILETKAPYRIFQTDAIKSFVRQLNLYGFSKIQQNFQRSAFLATFLSEEKESSVLSKLKFYYNPNFKRGYPQLLVRVKRRIGVKNASPISTLFNEDFNKKHFRAGANMENHNSALAAEASEESLFSASKNLNMPLTRESSVRQIIANSSVPIRSGFPPPSPSTSVGPSEQIATDQHAILNQLTTIHMHSHSTYMQARGHIVNFITTTTSQYHIISPLQNGYFGLTVEPSAVPTRYPLVSVNEAPYRNMLPAGNPWLQMPTIADRSAAPHSRLALQPSPLDKYHPNYN

In one assay the target is VC155-Hoxa1 (mouse) (UniProt P09022). Kind of assay: split reporter; BiFC in transfected MCF10A cells: VN173-hORF with VC155-Hoxa1; fixed 24 h after transfection, confocal microscopy.
As for B1, the binding result is on record as “binds”.

For B2, the binding entry was “binds”.

Take B3: the binding result was “binds”.

For B4, the binding result was “binds”.

As for B5, the binding result was “binds”.

For B6, the binding entry was “binds”.

For the molecule B7, the binding result is on record as “binds”.

Consider B8, for which the binding entry is “binds”.

Consider B9, for which the binding entry is on record as “binds”.

Another assay deals with Hoxa1 (mouse) (UniProt P09022). The assay is described as follows: two-hybrid; DB-Hoxa1 (Gal4 DNA binding domain) in MATα Y8930 mated with the AD-hORF library (human ORFeome v3.1) in MATa Y8800; 30°C; selection on Sc-L-T-H + 1 mM 3AT, retest on Sc-L-T-H, Sc-L-T-A and Sc-L-T-H-A+3AT.
Turning to B2, the binding entry is “binds”.

On to B10, for which the binding entry is listed as “binds”.

B11: the binding result is “binds”.

Regarding B12, the binding result was “binds”.

For the molecule B13, the binding entry is listed as “binds”.

For the molecule B6, the binding entry is “binds”.

With B9, the binding result is given as “binds”.
